Laboratory results: PMC2994726 (PLoS ONE, 2010)
Results are given in words; binding and its absence hold for the method and conditions named. Binding seen in cells or lysates may run through a third protein. Some binding calls cover weakened binding; strength is not graded here.

Amino acid sequences for entries named in this document (tags omitted). A change or cut given only in a name is not applied to a line headed by its entry.
UniProt P25095: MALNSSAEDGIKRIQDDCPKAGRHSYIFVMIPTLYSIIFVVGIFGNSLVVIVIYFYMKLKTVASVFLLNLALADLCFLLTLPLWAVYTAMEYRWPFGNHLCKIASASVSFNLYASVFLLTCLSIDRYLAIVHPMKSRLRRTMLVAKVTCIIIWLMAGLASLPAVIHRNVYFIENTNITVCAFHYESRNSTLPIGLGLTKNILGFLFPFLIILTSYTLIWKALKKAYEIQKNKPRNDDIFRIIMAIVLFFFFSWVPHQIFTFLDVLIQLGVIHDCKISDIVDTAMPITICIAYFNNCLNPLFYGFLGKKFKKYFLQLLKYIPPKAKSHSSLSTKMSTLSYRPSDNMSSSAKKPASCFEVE

Experiments:
[1] = target: Luc-tagged rat AT1a receptor D74N, full length (rat) (UniProt P25095); test: FRET or BRET; BRET1 in live HEK293 cells co-transfected with Luc-tagged AT1R and YFP-β-arrestin2, with or without overexpressed Gαq; dose-response to Ang II
[2] = target: Luc-tagged rat AT1a receptor Y302F, full length (rat) (UniProt P25095); test: as above

Substance: YFP-β-arrestin2 (from UniProt P32121 1-409)
- binding [1]: binds
- binding [2]: binds
